# Experimental data taken from PMC3040221.
# Sequences of proteins named here, by UniProt entry; tags and fusion partners are left off. Residues count along the entry.
# UniProt P34152: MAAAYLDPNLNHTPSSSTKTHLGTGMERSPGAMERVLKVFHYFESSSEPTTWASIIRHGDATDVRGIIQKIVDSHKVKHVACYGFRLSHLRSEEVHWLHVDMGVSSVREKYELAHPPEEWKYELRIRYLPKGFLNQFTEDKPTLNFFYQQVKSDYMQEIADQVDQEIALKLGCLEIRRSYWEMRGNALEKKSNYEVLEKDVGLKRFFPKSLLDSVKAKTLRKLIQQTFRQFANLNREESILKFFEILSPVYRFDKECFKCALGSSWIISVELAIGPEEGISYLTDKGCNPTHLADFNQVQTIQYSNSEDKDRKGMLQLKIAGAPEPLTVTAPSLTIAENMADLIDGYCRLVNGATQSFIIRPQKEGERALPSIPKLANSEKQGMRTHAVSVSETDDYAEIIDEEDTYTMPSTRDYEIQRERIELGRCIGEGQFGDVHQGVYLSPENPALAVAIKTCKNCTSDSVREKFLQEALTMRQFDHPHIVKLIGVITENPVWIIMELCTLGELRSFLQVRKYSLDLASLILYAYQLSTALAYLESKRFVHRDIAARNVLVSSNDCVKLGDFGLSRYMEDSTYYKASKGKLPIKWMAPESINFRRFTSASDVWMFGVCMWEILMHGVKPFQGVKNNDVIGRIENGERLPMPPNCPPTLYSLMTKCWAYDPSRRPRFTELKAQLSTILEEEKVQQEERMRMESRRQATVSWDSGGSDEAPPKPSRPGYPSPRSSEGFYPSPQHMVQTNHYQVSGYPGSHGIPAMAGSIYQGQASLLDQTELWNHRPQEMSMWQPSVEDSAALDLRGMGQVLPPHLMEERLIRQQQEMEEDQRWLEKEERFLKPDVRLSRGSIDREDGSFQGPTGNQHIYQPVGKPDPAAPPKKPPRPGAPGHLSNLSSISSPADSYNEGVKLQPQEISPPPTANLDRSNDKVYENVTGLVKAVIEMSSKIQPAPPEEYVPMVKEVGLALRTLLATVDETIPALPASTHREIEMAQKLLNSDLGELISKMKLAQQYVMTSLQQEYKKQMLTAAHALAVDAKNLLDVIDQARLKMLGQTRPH
# UniProt P19091: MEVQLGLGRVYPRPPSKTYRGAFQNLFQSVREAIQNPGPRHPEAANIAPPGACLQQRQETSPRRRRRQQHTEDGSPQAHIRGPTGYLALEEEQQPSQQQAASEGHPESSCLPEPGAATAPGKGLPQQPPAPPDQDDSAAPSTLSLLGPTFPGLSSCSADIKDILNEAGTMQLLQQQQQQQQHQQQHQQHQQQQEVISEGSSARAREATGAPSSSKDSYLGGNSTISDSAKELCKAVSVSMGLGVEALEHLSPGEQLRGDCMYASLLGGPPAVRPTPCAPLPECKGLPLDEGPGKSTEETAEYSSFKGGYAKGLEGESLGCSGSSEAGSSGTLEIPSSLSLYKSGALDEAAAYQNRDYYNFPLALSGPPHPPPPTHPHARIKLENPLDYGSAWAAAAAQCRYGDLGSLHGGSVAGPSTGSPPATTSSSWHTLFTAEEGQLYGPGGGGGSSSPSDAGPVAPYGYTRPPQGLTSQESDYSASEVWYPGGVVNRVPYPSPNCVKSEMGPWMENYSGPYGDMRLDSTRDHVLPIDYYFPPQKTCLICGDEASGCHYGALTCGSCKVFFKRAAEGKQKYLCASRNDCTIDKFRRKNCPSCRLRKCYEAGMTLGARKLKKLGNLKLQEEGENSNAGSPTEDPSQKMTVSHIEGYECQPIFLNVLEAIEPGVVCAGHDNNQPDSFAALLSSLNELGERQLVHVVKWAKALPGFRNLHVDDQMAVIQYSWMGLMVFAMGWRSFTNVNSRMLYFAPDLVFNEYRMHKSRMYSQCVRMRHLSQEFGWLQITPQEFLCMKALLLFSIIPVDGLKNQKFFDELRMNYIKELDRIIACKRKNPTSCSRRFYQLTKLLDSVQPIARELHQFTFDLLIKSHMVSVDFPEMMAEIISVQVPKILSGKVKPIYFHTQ
# UniProt Q8BTM8: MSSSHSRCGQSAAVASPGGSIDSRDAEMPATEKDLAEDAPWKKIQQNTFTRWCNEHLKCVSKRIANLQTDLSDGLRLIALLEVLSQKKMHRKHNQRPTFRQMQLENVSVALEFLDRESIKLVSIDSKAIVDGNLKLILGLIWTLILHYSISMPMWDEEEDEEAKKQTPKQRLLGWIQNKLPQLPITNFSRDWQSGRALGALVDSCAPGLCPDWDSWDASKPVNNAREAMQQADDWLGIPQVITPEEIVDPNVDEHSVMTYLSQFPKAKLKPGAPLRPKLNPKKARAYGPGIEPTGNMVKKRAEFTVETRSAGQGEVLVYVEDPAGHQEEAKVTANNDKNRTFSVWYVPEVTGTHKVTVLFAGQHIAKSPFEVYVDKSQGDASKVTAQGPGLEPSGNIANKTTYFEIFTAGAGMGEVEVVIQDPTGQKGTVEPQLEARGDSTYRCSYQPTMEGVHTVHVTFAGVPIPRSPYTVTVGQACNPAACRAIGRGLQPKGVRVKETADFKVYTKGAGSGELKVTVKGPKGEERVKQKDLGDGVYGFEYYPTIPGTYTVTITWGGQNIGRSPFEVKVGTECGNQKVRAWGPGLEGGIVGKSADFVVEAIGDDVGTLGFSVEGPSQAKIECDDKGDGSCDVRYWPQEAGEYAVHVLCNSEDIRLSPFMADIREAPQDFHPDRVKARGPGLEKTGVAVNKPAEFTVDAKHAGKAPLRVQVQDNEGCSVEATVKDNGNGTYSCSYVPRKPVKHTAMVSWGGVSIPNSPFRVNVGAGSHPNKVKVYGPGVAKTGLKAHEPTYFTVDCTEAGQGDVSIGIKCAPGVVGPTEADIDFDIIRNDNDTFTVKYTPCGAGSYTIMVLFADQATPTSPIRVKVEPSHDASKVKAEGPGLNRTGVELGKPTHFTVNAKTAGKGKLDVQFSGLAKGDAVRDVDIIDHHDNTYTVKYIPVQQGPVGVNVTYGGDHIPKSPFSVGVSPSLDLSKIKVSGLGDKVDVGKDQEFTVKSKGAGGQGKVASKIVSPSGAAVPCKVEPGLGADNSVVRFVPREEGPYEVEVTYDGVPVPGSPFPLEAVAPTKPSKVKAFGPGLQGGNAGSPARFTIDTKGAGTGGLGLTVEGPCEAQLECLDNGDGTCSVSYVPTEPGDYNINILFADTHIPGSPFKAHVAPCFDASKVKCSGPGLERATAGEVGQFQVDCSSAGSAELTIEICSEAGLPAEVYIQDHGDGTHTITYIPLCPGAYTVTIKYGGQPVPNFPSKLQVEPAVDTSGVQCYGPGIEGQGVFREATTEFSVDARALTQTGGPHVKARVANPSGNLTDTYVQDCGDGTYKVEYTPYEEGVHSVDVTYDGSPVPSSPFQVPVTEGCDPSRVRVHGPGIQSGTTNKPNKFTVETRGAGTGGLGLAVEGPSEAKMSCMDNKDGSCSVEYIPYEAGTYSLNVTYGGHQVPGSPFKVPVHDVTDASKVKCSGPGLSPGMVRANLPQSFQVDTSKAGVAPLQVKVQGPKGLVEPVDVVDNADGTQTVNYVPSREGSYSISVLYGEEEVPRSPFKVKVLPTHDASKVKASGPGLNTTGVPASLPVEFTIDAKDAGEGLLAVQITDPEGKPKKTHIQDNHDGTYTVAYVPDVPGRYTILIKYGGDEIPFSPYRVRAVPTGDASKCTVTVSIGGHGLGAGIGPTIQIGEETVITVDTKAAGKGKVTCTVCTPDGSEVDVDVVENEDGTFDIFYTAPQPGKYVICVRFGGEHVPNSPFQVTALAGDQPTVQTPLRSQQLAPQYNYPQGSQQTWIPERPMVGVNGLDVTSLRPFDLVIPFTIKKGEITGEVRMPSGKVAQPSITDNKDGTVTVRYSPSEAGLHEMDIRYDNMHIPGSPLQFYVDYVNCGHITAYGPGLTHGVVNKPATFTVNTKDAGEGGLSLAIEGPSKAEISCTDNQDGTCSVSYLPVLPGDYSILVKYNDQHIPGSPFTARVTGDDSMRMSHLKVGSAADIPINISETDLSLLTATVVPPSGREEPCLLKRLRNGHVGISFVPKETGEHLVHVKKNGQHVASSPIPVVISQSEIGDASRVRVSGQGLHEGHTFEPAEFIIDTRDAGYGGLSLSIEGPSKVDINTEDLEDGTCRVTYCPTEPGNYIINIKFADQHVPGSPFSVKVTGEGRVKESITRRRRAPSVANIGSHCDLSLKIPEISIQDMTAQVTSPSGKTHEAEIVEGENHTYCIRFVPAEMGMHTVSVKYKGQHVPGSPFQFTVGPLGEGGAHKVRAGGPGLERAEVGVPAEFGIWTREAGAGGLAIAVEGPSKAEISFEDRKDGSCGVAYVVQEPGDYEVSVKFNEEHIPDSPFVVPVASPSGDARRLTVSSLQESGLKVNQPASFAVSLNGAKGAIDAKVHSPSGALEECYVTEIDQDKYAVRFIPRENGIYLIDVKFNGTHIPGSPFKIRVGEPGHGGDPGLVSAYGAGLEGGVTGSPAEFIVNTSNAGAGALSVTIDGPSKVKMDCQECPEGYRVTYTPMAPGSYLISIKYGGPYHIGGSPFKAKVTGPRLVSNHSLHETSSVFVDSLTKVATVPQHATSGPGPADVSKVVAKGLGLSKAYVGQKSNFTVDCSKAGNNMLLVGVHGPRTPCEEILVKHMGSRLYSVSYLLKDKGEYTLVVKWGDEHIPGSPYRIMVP
# UniProt P09055, residues 21-798: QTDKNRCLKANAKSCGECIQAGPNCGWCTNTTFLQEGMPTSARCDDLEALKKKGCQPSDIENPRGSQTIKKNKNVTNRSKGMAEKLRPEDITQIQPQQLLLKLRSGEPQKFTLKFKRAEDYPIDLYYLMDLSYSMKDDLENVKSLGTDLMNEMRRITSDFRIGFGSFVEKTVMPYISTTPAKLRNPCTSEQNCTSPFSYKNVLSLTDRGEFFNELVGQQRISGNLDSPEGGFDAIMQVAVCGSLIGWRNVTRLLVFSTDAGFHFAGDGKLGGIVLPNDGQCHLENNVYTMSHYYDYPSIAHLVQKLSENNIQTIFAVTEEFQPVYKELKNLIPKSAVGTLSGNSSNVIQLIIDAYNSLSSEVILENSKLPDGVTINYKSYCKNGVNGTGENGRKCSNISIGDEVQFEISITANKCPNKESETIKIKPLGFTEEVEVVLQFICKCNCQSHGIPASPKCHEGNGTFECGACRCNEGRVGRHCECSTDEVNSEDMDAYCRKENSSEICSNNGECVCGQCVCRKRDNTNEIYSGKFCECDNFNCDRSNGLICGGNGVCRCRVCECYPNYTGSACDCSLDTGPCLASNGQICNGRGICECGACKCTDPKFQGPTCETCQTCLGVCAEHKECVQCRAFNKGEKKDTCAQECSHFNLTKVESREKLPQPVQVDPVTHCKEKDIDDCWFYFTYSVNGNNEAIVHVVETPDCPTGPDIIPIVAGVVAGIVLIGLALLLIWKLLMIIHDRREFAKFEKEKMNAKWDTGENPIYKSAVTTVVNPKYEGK
# UniProt Q8VI36: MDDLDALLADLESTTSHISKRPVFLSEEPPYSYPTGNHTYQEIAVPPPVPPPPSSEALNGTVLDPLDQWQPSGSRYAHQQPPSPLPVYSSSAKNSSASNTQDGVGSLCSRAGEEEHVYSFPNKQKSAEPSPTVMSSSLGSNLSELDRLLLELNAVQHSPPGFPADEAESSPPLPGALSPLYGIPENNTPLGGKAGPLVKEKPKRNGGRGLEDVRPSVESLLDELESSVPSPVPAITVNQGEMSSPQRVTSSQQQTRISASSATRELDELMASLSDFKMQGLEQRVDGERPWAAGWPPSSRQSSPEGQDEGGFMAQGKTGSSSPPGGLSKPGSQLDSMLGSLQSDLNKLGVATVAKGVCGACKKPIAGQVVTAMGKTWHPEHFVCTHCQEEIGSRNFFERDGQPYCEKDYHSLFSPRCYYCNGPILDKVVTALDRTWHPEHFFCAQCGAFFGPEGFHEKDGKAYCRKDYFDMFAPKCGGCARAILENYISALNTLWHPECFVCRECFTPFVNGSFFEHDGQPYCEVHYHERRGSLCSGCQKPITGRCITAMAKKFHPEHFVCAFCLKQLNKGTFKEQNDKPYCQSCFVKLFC
# No constants are given. Whether binding was seen depends on the method and setting. Binding seen in cells or lysates may run through a third protein. Some binding calls cover weakened binding; strength is not graded here.
# Columns and labels:
# [1] = biological target: Focal adhesion kinase (endogenous, NIH3T3 fibroblasts) (mouse (endogenous in NIH3T3)) (UniProt P34152); test: co-IP; quiescent NIH3T3 cells transfected with non-targeting siRNA, untreated (basal conditions, no R1881); lysates immunoprecipitated with anti-FAK antibody, immunoblot (Fig. 7A, 7C)
# [2] = biological target: Androgen receptor (endogenous, NIH3T3 fibroblasts) (mouse (endogenous in NIH3T3)) (UniProt P19091); test: co-IP; quiescent NIH3T3 cells untreated or treated 5 min with R1881 (1 pM or 10 nM); lysates immunoprecipitated with anti-AR antibody, immunoblot (Fig. 6D, Fig. 8C)
# [3] = biological target: Focal adhesion kinase (endogenous, NIH3T3 fibroblasts) (mouse (endogenous in NIH3T3)) (UniProt P34152); test: co-IP; quiescent NIH3T3 cells (untransfected or transfected with non-targeting siRNA) treated 5 min with 10 nM R1881; lysates immunoprecipitated with anti-FAK antibody, immunoblot (Fig. 2C, 7A, 7C, 8B)
# [4] = biological target: Filamin A (endogenous, NIH3T3 fibroblasts) (mouse (endogenous in NIH3T3)) (UniProt Q8BTM8); test: co-IP; quiescent NIH3T3 cells untreated or treated 5 min with R1881 (1 pM or 10 nM); lysates immunoprecipitated with anti-FlnA antibody, immunoblot (Fig. 6C, Fig. S6)
# [5] = biological target: Androgen receptor (endogenous, NIH3T3 fibroblasts) (mouse (endogenous in NIH3T3)) (UniProt P19091); test: co-IP; quiescent NIH3T3 cells treated 5 min with 10 nM R1881 in the presence of 10 microM Casodex; lysates immunoprecipitated with anti-AR antibody, immunoblot (Fig. 6D)
# [6] = biological target: Integrin beta 1 (endogenous, NIH3T3 fibroblasts) (mouse (endogenous in NIH3T3)) (UniProt P09055); test: co-IP; quiescent NIH3T3 cells treated 5 min with 10 nM R1881; lysates immunoprecipitated with anti-integrin beta 1 antibody, immunoblot (Fig. 8A)
# [7] = biological target: Integrin beta 1 (endogenous, NIH3T3 fibroblasts) (mouse (endogenous in NIH3T3)) (UniProt P09055); test: co-IP; quiescent NIH3T3 cells treated 5 min with 10 nM R1881 in the presence of 10 µM Casodex; lysates immunoprecipitated with anti-integrin beta 1 antibody, immunoblot (Fig. 8A)
# [8] = biological target: Filamin A (endogenous, NIH3T3 fibroblasts) (mouse (endogenous in NIH3T3)) (UniProt Q8BTM8); test: co-IP; quiescent NIH3T3 cells treated 5 min with 10 nM R1881 in the presence of 10 microM Casodex; lysates immunoprecipitated with anti-FlnA antibody, immunoblot (Fig. 6C, Fig. S6)
substance,measurement,setting,value
"Integrin beta 1 (endogenous, NIH3T3 fibroblasts) (from UniProt P09055 21-798) (receptor)",binding,[1],binds weakly
same,binding,[2],binds
same,binding,[3],binds
same,binding,[4],binds
same,binding,[5],no binding (condition: with 10 microM Casodex)
"Focal adhesion kinase (endogenous, NIH3T3 fibroblasts) (from UniProt P34152 1-1052) (enzyme)",binding,[6],binds
same,binding,[2],no binding
same,binding,[7],no binding (condition: with 10 µM Casodex)
"P-Tyr 118-paxillin (endogenous, NIH3T3 fibroblasts) (from UniProt Q8VI36 1-591)",binding,[3],binds
"Androgen receptor (endogenous, NIH3T3 fibroblasts) (from UniProt P19091 1-899)",binding,[6],binds
same,binding,[3],no binding
same,binding,[8],no binding (condition: with 10 microM Casodex)
same,binding,[4],binds
same,binding,[7],no binding (condition: with 10 µM Casodex)
